Results reported in US20190202912A1.

B1: 6F8 (antibody, V domains shown)
VH: QVQLKQSGPELVRPGASVKISCEASGYTFTDYYVNWVKQRPGRGLEWIGKIGPGSVSIYYNEKFKDKATLTADKSSSTAYMQLSGLTSEDSAVYFCASYYYGFAYWGQGTLVTVSA
VL: DIVMTQAAPSVPVTPGESVSISCRSSKSLLHSNGNTYLYWFLQRPGQSPQLLIYRMSNLASGVPDRFGGSGSGTAFTLRISRVEAEDVGVYYCMQHLEYPYTFGGGTKLEIKR
B2: 8C8 (antibody, V domains shown)
VH: B1 VH with P9A, R13K, E23K, R43Q, G54E, N61S, D66A, G85S
VL: DIVMTQAAPSVPVTPGESVSISCRSSKSLLHSNGNTYLYWFLQRPGQSPQLLIYRMSNLASGVPDRFGGSGSGTAFTLRISRVEAEDVGVYYCMQHLEYPYTFGGGTKLEIK
B3: 1C3 (antibody, V domains shown)
VH: B1 VH with P9A, R13K, E23K, T28I, R43Q, D66G, G85S
VL: B2 VL with V90F, K108R
B4: 3H10 (antibody, V domains shown)
VH: EVQLQQSGAELVRPGASVKLSCTASGFNIKDYYMHWVKERPEQGLEWIGRIDPEDGDIEYDPKFQGKATMTADTSSNTAYLQFSSLTSEDTAVYYCVTDYDYDGGWFAYWGQGTLVTVSA
VL: QIILTQSPAIMSASPGEKVTMTCSASSSTSFMHWYQQKPGTSPKRWIFDTSKLASGVPGRFIGSGSGTSYSLTISTMEAEDAATYYCHQRSAYPWTFGGGTKLEIK
B5: 1C12 (antibody, V domains shown)
VH: EVQLVESGGGLVKPGGSLKLSCAASGFSFSDYGMHWVRQAPEKGLEWVAYISSGSSILYYADIVKGRFTISRDNAKNTLFLQMTSLRSEDTAMYYCARDHYHGNGSDYWGQGTTLTVSS
VL: DVLMTQTPLSLPVSLGDQASISCRSSQSIVHSNGNTYLEWYLQKPGQSPKLLIYKVSNRFSGVPDRFSGSGSGTDFTLKISRVEAEDLGVYYCFQGSHVPWTFGGGTKLEIK
B6: 1B2 (antibody, V domains shown)
VH: B5 VH with L11F, S28T, L58I, I63T
VL: B5 VL
B7: 1H3 (antibody, V domains shown)
VH: QVQLKESGPGLVAPSQSLSITCTVSGFSLSNYGVHWVRQPPGKGLEWLVLIWSDGSTTYNSALKSRLSISKDNSKSQVFLKMNSLQTGDTAMYYCARHPYDDYSGYYYTMDYWGQGTSVTVSS
VL: DIQMTQASSSLSVSLGGRVTITCKASDHINNWLAWYQQKPGNAPRLLISGATSLETGVPSRFSGSGSGKDYTLSITSLQTEDVATYYCQQYWSSPLTFGAGTKLELK
B8: 92A (antibody, V domains shown)
VH: DVQLQESGPGLVKFSQSLSLTCSVTGYSITSGYYWNWIRQFPGNKLEWMGYIRHDGSNNYNPSLKNRISITRDTSKNQFFLKLNSVITEDTATYYCVREIYDGSSGYFDVWGTGTTVTVSS
VL: QIVLTQSPAIMSASLGEEITLICSASSSVSYMHWYQQKSGTSPKLLIYRTSNLASGVPSRFSGSGSGTFYSLTISSVEAEDAADYYCHQWSSWTFGGGTQLEIK
B9: 105A (antibody, V domains shown)
VH: EVQLQQSGAELVRPGASVKLSCTASGFNIKDDYMHWVKQRPEQGLEWIGCIDPENGDIEYASRFQGKATMTADTSSNTAYLQLTSLTSADTAVYYCTTYVGFGYWGQGTLVTVSA
VL: B5 VL with W101L, G105A, I111L

molecular target: mS15 (Mus musculus); test: flow cytometry, formalin-fixed MC38.mS15 cells

Binder	binding
B1	binds
B2	binds
B3	binds
B4	binds
B5	binds
B6	binds
B7	binds
B8	binds
B9	binds

molecular target: mS15 (Mus musculus); test: flow cytometry, live MC38.mS15 cells, 1 µg mAb/1E05 cells/100 µL, PE secondary

Binder	binding
B1	binds
B2	binds
B3	binds
B4	binds
B5	binds
B6	binds
B7	binds
B8	binds
B9	binds

molecular target: mS15 (Mus musculus); test: flow cytometry MFI on 293T.mS15 cells (y axis of the dot plot)

Binder	binding
B1	binds
B2	binds
B3	binds
B4	binds
B5	binds
B6	binds
B7	binds

molecular target: mS15 (Mus musculus); test: flow cytometry titration, 293T cells transfected with mouse Siglec-15 (293T.mS15)

Binder	binding
B1	binds
B2	binds
B3	binds
B4	binds
B5	binds
B6	binds
B7	binds

molecular target: mS15 (Mus musculus); test: flow cytometry, MC38.mS15 cells, 1 µg hybridoma-purified mAb, PE anti-mouse Ig

Binder	binding
B1	binds
B2	binds
B3	binds
B4	binds
B5	binds
B6	binds
B7	binds
B8	binds
B9	binds

Residue numbers refer to the chain shown, from its start. These are yes or no findings as the source states them, for the method shown. A result given as binding can be weak or reduced; the word gives no strength.
